This passage reports binding results from paper PMC7039211, “Cryo-EM structure of the complete and ligand-saturated insulin receptor ectodomain” (The Journal of Cell Biology, 2019).

No constants are given. Whether binding was seen depends on the method and setting. Sequences can lack the tags named with a protein.

This assay concerns the target T1, 8xHis-tagged control peptide (8xHis tag and part of the HRV3C cleavage site).
T1 sequence (peptide, C-terminal amide; labelled with RED-tris-NTA): HHHHHHHHKLEVLF
Briefly: MST; in solution; RED-tris-NTA label on the 8xHis tag of IR-ECD (10 nM) or of the control peptide, unlabelled insulin titrated from 2.5 µM to 76 pM; incubated overnight at 4°C; HBS-T / HBS with 25 µM HCl, pH 7.5; measured at 25°C; one-site fit; n = 3; both purified.

Turning to recombinant human insulin (ligand), the binding result was “no binding (tested: ≤2.5 µM)”.
